According to paper PMC8176713:
These are yes or no findings as the source states them, for the method shown. In cells and extracts the contact can be indirect. Some binding calls cover weakened binding; strength is not graded here. Where a sequence is shown, tags or fusion partners need not be part of it.

T1: Hfl1-GFP (S. cerevisiae) (UniProt P36142)
T1 sequence: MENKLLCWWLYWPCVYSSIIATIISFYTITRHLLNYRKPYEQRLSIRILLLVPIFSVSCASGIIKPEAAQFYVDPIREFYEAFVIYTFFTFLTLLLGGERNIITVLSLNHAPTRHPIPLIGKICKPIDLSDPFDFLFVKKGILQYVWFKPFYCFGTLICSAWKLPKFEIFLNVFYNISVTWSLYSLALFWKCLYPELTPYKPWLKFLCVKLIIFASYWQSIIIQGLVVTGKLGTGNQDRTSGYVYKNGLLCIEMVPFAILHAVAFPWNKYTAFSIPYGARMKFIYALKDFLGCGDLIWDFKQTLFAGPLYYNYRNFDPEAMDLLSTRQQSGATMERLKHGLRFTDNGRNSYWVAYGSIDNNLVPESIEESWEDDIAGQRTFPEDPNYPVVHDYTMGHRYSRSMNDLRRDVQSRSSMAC

T2: Hfl1-GFP W371A I375A (S. cerevisiae) (UniProt P36142)
T2 sequence: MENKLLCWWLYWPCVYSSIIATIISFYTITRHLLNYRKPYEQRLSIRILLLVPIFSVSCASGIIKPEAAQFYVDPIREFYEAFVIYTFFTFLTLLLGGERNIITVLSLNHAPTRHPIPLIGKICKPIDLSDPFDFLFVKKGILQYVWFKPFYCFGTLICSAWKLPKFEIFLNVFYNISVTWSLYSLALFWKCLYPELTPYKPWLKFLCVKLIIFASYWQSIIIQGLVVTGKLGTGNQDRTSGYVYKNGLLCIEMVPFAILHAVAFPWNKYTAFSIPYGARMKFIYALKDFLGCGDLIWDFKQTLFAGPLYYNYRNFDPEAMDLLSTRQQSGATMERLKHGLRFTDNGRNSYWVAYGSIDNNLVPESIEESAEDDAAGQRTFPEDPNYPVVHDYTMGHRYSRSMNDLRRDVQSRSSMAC

T3: Hfl1-GFP Y387A (S. cerevisiae) (UniProt P36142)
T3 sequence: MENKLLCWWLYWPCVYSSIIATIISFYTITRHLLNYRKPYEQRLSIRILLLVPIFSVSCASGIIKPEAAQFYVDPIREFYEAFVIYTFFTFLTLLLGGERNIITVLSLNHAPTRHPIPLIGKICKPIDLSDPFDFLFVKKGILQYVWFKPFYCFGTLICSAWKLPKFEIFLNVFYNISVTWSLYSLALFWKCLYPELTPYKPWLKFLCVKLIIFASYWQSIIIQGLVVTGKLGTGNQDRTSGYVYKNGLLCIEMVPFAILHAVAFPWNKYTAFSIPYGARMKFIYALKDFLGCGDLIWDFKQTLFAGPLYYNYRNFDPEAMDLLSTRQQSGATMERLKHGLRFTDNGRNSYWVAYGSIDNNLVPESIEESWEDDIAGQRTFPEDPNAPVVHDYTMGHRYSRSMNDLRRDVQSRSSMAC

T4: Hfl1-GFP D384A (S. cerevisiae) (UniProt P36142)
T4 sequence: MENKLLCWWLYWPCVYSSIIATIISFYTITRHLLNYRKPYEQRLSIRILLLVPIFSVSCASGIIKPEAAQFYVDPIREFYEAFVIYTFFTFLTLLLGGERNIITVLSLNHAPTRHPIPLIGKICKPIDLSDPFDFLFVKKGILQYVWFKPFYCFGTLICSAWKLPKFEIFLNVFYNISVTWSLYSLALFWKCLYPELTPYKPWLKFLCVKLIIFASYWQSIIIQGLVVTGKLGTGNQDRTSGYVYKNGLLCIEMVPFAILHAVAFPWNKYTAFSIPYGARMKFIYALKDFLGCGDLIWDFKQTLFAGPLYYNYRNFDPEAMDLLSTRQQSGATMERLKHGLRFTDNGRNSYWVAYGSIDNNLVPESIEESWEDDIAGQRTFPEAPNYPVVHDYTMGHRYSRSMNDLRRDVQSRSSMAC


Tests used:
Assay in all cases: co-IP; lysates of log phase yeast co-expressing Hfl1-GFP (TEF1 promoter) and 8 V5-Atg8 (own promoter) loaded on anti-GFP affinity resin, 4C, 2 h; lysis buffer 50 mM Tris-Cl, 150 mM NaCl, 10% glycerol, 1 mM EDTA, 1 mM PMSF, 0.2% NP-40, pH 7.4; immunoblot
Hfl1-GFP (S. cerevisiae) = target: T1, Hfl1-GFP (S. cerevisiae)
[1] = target: T2, Hfl1-GFP W371A I375A (S. cerevisiae)
[2] = target: T3, Hfl1-GFP Y387A (S. cerevisiae)
[3] = target: T4, Hfl1-GFP D384A (S. cerevisiae)

Row | binding (Hfl1-GFP (S. cerevisiae)) | binding [1] | binding [2] | binding [3] | Binder
1 | binds | binds | binds | binds | 8 V5-Atg8 (protein, UniProt P38182 1-117) MKSTFKSEYPFEKRKAESERIADRFKNRIPVICEKAEKSDIPEIDKRKYLVPADLTVGQFVYVIRKRIMLPPEKAIFIFVNDTLPPTAALMSAIYQEHKDKDGFLYVTYSGENTFGR
2 | binds | – | – | – | 8 V5-Atg8 P85A P86A (protein, UniProt P38182 1-117) MKSTFKSEYPFEKRKAESERIADRFKNRIPVICEKAEKSDIPEIDKRKYLVPADLTVGQFVYVIRKRIMLPPEKAIFIFVNDTLAATAALMSAIYQEHKDKDGFLYVTYSGENTFGR
3 | binds | – | – | – | 8 V5-Atg8 T56A T87A (protein, UniProt P38182 1-117) MKSTFKSEYPFEKRKAESERIADRFKNRIPVICEKAEKSDIPEIDKRKYLVPADLAVGQFVYVIRKRIMLPPEKAIFIFVNDTLPPAAALMSAIYQEHKDKDGFLYVTYSGENTFGR
4 | binds weakly | – | – | – | 8 V5-Atg8 T56A R65A T87A (protein, UniProt P38182 1-117) MKSTFKSEYPFEKRKAESERIADRFKNRIPVICEKAEKSDIPEIDKRKYLVPADLAVGQFVYVIAKRIMLPPEKAIFIFVNDTLPPAAALMSAIYQEHKDKDGFLYVTYSGENTFGR
